Measurements published in patent US20220324954A1.

Legend:
rabbit VEGFA (rabbit) [1] = assay: ELISA (FIG. 9 legend)
rabbit VEGFA (rabbit) [2] = assay: ELISA, antibody coated at 1 ug/mL, biotinylated ligand at 1 ug/mL, SA-HRP (FIG. 9)

B1: hu bi-Nb24(Y) (VHH)
chain: EVQLQESGGGLVQPGGSLRLSCTASGFTFDDPDVGWFRQAPGNECELVSTISKDGSTYYTDSVKGRFTISRDYAKNTVYLQMNSLRAEDTAVYYCAADSNPIAPIRTCLGWYNYWGQGTLVTVSSGGGGSGGGSEVQLQESGGGLVQPGGSLRLSCTASGFTFDDPDVGWFRQAPGNECELVSTISKDGSTYYTDSVKGRFTISRDYAKNTVYLQMNSLRAEDTAVYYCAADSNPIAPIRTCLGWYNYWGQGTLVTVSS
In the case of B1, the binding (rabbit VEGFA (rabbit) [1]) is reported as “binds” and the binding (rabbit VEGFA (rabbit) [2]) is reported as “binds”.

Results are given in words; binding and its absence hold for the method and conditions named. Binding can be weak; no strength is given.
